Measurements published in patent US7960614B2, “Plant transformation and selection” (Arborgen, LLC, priority 2003, dated 2011).
At least one structure is not confirmed: it was looked up by name or label, or the drawing left a doubt.

Test system: E. dunnii clone DUN00001
Experiment: Shoot regeneration from Agrobacterium-inoculated internodal explants, zeatin/NAA optimisation
Format: cell-based, Eucalyptus dunnii
Details: Table 5 experiments
Description: This example teaches a method to optimize the levels of growth regulators for shoot regeneration from the recalcitrant commercial E. dunnii clone DUN00001 or other recalcitrant clones. Internodal explants are prepared as described in Example 1 and are inocultated with Agrobacterium as described in Example 5. Following co-cultivation, transformed shoot clumps are transferred to a shoot regeneration medium. […] To optimize the auxin and cytokinin concentrations in the shoot regeneration media, several combinations of hormones were evaluated as a function of the production of elongated shoots. […] During the initial screening, the zeatin levels were 10, 1, and 0.1 mg/l and the NAA levels were 0.01, 0.1 and 1 mg/l. […] The following data summarize the attempt to optimize the level of zeatin and NAA.

**Q.** With `O=C(O)Cc1cccc2ccccc12` [NAA, naphthaleneacetic acid] as the compound, how does the “shoot induction, comparison of levels in two experiments” value read?
**A.** Its value is “NAA at 0.11 mg/l is better than the low levels”.
